Measured values taken from publication PMC9735595, “Advanced EPI-X4 Derivatives Covalently Bind Human Serum Albumin Resulting in Prolonged Plasma Stability” (International Journal of Molecular Sciences, 2022).
Results are given in words; binding and its absence hold for the method and conditions named. Some entries that bind do so weakly or less than the wild type.

Protein sequences, listed by entry. Tags and fused reporters are not part of them. Residues count along the entry.
UniProt P61073: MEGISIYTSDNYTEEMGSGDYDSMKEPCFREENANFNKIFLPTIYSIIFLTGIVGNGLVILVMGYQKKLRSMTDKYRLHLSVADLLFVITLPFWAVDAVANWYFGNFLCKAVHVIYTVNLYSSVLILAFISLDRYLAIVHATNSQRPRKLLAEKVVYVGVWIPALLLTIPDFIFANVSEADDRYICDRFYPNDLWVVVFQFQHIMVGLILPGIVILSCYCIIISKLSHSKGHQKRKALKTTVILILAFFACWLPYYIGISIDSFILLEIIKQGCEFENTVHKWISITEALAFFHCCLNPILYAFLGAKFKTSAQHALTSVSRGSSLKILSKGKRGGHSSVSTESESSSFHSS
UniProt P02768, residues 25-609: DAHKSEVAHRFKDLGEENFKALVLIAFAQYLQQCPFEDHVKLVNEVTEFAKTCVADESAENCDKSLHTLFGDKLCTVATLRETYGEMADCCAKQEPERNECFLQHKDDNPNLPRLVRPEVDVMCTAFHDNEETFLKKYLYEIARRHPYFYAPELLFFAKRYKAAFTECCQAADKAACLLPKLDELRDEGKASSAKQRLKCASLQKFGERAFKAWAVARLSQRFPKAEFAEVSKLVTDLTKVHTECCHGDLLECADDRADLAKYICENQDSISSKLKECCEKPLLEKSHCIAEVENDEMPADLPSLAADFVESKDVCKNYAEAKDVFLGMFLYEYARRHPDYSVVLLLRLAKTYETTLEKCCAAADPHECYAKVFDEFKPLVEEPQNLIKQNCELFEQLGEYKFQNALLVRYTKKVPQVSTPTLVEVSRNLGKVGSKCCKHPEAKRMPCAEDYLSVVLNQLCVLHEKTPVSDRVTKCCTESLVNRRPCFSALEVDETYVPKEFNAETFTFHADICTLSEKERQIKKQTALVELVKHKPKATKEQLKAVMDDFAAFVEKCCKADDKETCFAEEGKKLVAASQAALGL

Assays:
[1] = target: C-X-C chemokine receptor type 4 (human (endogenous in SupT1)) (UniProt P61073); assay: flow cytometry on cells; competition with APC-labeled antibody 12G5 (ECL2 of CXCR4) on SupT1 cells; serial dilution of compound in PBS with a constant concentration of antibody, 2 h at 4 °C; only the binder purified
[2] = target: human serum albumin (human) (UniProt P02768); assay: SEC; size-exclusion HPLC (Yarra SEC-2000) of human plasma spiked with peptide after 10 min at 37 °C; 25 mM NaH2PO4 + 25 mM Na2HPO4 + 250 mM KCl, pH 6.65; fractions treated with DTT + GuHCl and peptide detected by mass spectrometry; HSA and free peptides run as references; only the binder purified
[3] = target: human serum albumin (human) (UniProt P02768); assay: condition: only after reduction + carbamidomethylation of the digest; LC-MS/MS of a tryptic digest (disulfide-linked fragments); human plasma spiked with peptide, digested with trypsin (50:1) 16 h at 37 degrees; half of the digest reduced and carbamidomethylated as control; only the binder purified
[4] = target: C-X-C chemokine receptor type 4 (human (endogenous in SupT1)) (UniProt P61073); assay: flow cytometry on cells; compound dissolved at 20 µM in 100% human plasma, incubated at 37 °C, aliquots serially diluted in ice-cold PBS, then competition with antibody 12G5 on SupT1 cells
[5] = target: human serum albumin (human) (UniProt P02768); assay: LC-MS/MS of a tryptic digest (disulfide-linked fragments); human plasma spiked with peptide, digested with trypsin (50:1) 16 h at 37 degrees; half of the digest reduced and carbamidomethylated as control; only the binder purified

| binding [1] | binding [2] | binding [3] | binding [4] | binding [5] | Binder |
| --- | --- | --- | --- | --- | --- |
| binds |  |  |  |  | IVRWSKKVPSVS [EPI-X4 WSC02 C10S] |
| binds |  |  |  |  | ILRWSRKLPCVS (carbamidomethylated Cys at position 10) [EPI-X4 JM#21 Cdm] |
| binds | binds | no binding | binds | binds | IVRWSKKVPCVS [EPI-X4 WSC02] |
| binds |  |  |  |  | IVRWSKKVPCVS (carbamidomethylated Cys at position 10) [EPI-X4 WSC02 Cdm] |
| binds | binds | no binding | binds | binds | ILRWSRKLPCVS [EPI-X4 JM#21] |
| binds |  |  |  |  | ILRWSRKLPSVS [EPI-X4 JM#21 C10S] |
